Laboratory results as given in publication PMC13598245.
No constants are given. Whether binding was seen depends on the method and setting. Binding can be weak; no strength is given.

Columns and labels:
Experiment in all cases: fluorescence polarisation; fluorescence anisotropy; 2x serial dilution of purified protein mixed with 50 nM N-terminally FITC-conjugated peptide, room temperature, 15 min, 384-well plate; one-site binding model, n = 3; both purified
[1] = target: T1, MAST1^153-166 WT (Mus musculus)
T1 sequence (peptide, FITC on the N-terminus): PAVRPRSRSLSPGR

[2] = target: T2, MAST1^153-166 R156E R158E (Mus musculus)
T2 sequence (peptide, FITC on the N-terminus): PAVEPESRSLSPGR

[3] = target: T3, MAST1^153-166 R156E R158E L162D (Mus musculus)
T3 sequence (peptide, FITC on the N-terminus): PAVEPESRSDSPGR

Measured: binding

MAST1^DK ΔS90 ΔS161 (Mus musculus) (domain or fragment)
binds weakly: [1] | [2] | [3]
